Source: publication PMC8308784, “Novel Purine Chemotypes with Activity against Plasmodium falciparum and Trypanosoma cruzi” (Pharmaceuticals, 2021)
Values joined by “and” are separate entries in the source; they are usually repeats but may differ in a detail not shown here. Identical values can stand only once.

System: Vero cells
Assay: Vero cell toxicity assay (alamarBlue)
Type: cell-based, green monkey
Conditions: selectivity index; for SI a (Vero cells, anti-T. cruzi assay): Vero TC50 versus anti-T. cruzi assay IC50; for SI b (Vero cells, antiamastigote assay): Vero TC50 versus antiamastigote IC50; for SI c (Vero cells, anti-P. falciparum assay): Vero TC50 versus P. falciparum IC50
Protocol: Human erythrocytes were purified from B+ Rh+ blood samples and maintained at 4 °C in incomplete RPMI medium. Vero (green monkey kidney epithelial cells), LLC-MK2 (Rhesus monkey kidney epithelial cells), and HepG2 (human liver epithelial cells) cultures were cultivated in DMEM supplemented with 1% penicillin–streptomycin (PS) and 10% heat-inactivated fetal bovine serum (FBS) at 37 °C, 5% CO2, and >95% humidity, as described in [31]. HepG2 cells were also supplemented with 10% non-essential amino acids. Vero and MK2 cells were passaged twice per week at 1:12 ratios, while HepG2 cells were passaged at a 1:8 ratio.
Vero and HepG2 cells were detached, centrifuged, and resuspended in DMEM without phenol red. Cell viability was checked upon cell counting with trypan blue staining. Then, Vero and HepG2 cells were diluted at a concentration of 5 × 10^5 and 3.2 × 10^5 cells per mL, respectively, before adding 100 µL per well to the 96-well plate. Each run contained its own negative (untreated cells) and positive (medium alone) controls. Plates were incubated at 37 °C for 4 days in the case of Vero, or 2 in the case of HepG2 cells. Assay readout was made by adding 50 µL per well of a PBS solution containing 10% alamarBlue reagent (Thermo Fisher Scientific); then, plates were incubated for another 6 h at 37 °C, before recording the fluorescence intensity with a Tecan Infinite M Nano+ reader (excitation: 530 nm, emission: 590 nm).
Absorbance values derived from the anti-T. cruzi assays and fluorescence values from the anti-P. falciparum and cell toxicity assays were normalized to the controls. In the primary screening at three fixed doses, the compounds’ inhibitory activity was expressed as a percentage of the negative control (100% parasitic growth). In dose–response assays, the compounds’ IC50 and TC50 values were determined with GraphPad Prism 7 software (version 7.00, 2016), using a non-linear regression analysis model defined by the following equation: Y=100 ÷(1+10^((LogIC50−X)×HillSlope))

SMILES	SI a (Vero cells, anti-T. cruzi assay)	SI b (Vero cells, antiamastigote assay)	SI c (Vero cells, anti-P. falciparum assay)
O=C(Cn1ccnc1[N+](=O)[O-])NCc1ccccc1 [BNZ, benznidazole, reference compound]	121.80	115.11	
CC(C)(C)n1c(-c2ccccc2)nc2c(OCc3ccccc3)ncnc21 [Compound 6D]	>26.98		< 10 and >7.94
c1ccc(CCn2c(-c3ccccc3)nc3c(OCc4ccccc4)ncnc32)cc1 [Compound 6g]	>37.78	>7.63	< 10 and >7.86
CN1CCN(n2cnc3c(OCc4ccccc4)ncnc32)CC1 [Compound 29]	> 205.8 and >205.76	>6.36	
COc1ccccc1-n1cc(COc2ncnc3c2nc(-c2ccccc2)n3N(C)C)nn1 [Compound 33]			>15.63
COC(=O)c1ccccc1-n1cc(COc2ncnc3c2nc(-c2ccccc2)n3N(C)C)nn1 [Compound 34]	> 1456.31		
c1ccc(-c2nc3c(OCc4cn(Cc5cscn5)nn4)ncnc3n2N2CCCCC2)cc1 [Compound 76]			>27.37
COc1cccc(-n2cc(COc3ncnc4c3ncn4C(C)(C)C)nn2)c1 [Compound 88]	>14.15	>5.08	
C#CCOc1ncnc2c1ncn2N1CCN(C)CC1 [Compound 93]	> 1408.45	>9.17	
COc1cccc(-n2cc(COc3ncnc4c3ncn4N3CCN(C)CC3)nn2)c1 [Compound 94]	>63.16	>0.79	
